Laboratory results from US8912142B2, “Method of regulating proliferation and differentiation of keratinocyes” (The Medical Research, Infrastructure and Health Services …, priority 2009, dated 2014).
At least one compound was matched to its structure with a doubt left.

System: human skin grafted onto beige-SCID mice injected with NK/T cells from psoriatic patients
Assay: Chimeric human-mouse psoriasis model, histology
Format: in vivo
Details: topical, histology two weeks after the treatment
Method: To assess the effect of IGFBP7 on psoriasis, the present inventors used a chimeric mouse model (FIG. 23). The model is based on the use of normal skin from healthy controls that is grafted onto beige-SCID mice. The grafts are then injected with NK/T cells isolated from psoriatic patients (Gilhar et al., 2002).
In the experimental system used herein, two weeks after NK injection (6 weeks after engraftment) 3 groups of mice were treated with intralesional PBS, topical dexamethasone and intralesional IGFBP7. The effect of the treatment was monitored by histology analysis two weeks after the treatment (8 weeks after engraftment).

## C[C@@H]1C[C@H]2[C@@H]3CCC4=CC(=O)C=C[C@]4(C)[C@@]3(F)[C@@H](O)C[C@]2(C)[C@@]1(O)C(=O)CO [dexamethasone]
  typical psoriatic features on histology: absent in all five mice
